# Measured values published in patent US10806730B2, “Methods of treating cancer with farnesyltransferase inhibitors” (Kura Oncology, Inc., priority 2017, dated 2020).
# At least one compound was matched to its structure with a doubt left.
# System: higher risk MDS/CMML subjects
# Experiment: Clinical study of tipifarnib (INT-28) in higher risk MDS/CMML
# Type: in vivo, human
# Details: exemplary MDS subject with neutropenia, after two administration cycles
# Description: A clinical study of tipifarnib (300 mg bid (twice daily), 3 weeks on/1 week off) was conducted in 82 higher risk MDS/CMML subjects. 67 subjects were transfusion dependent (TD) at study entry, whereby a subject receiving one or several red blood cell (RBC) transfusions during screening and up to the first administration of tipifarnib was classified as TD.
# 30/67 (45%) MDS subjects were initially classified as having moderate to severe neutropenia, based on their absolute neutrophil count (ANC) of <1,000 cells/μl blood prior to receiving tipifarnib. The ANC of the remaining 37/67 (55%) MDS subjects was ≥1,000 cells/μl blood. 9/30 (30%) MDS subjects with moderate to severe neutropenia and 2/37 (5%) MDS subjects without moderate to severe neutropenia converted to transfusion independence during the tipifarnib study. […] The majority of the subjects that developed transfusion independence were of intermediate (INT) risk of developing AML.
smiles,measurement,value
Cn1cncc1[C@@](N)(c1ccc(Cl)cc1)c1ccc2c(c1)c(-c1cccc(Cl)c1)cc(=O)n2C [tipifarnib],platelet and leukocyte (WBC) counts,Increasing
